Test results as given in the supplement of paper PMC6078165.

System: MDAMB436
Test: relative JC-1 red fluorescence (viability) vs pre-drug, coculture with fibroblast (fraction); higher = more viable cancer cells
Protocol: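 JC-1 labelled TNBC cells cocultured 1:1 (1,500 cells each) with CellTrace Violet stained primary or stromal fibroblasts in 384-well plates in FluoroBrite medium, treated with one of 42 anticancer drugs at 0.1, 1, 10 or 100 uM. JC-1 red fluorescence (mitochondrial integrity in cancer cells only) was read by plate reader every 8 h for 72 h. Values are normalised to each well's pre-drug value. The stock of one drug was tenfold lower, so its dose labels may be too high.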

CC[C@]1(O)C[C@H]2CN(CCc3c([nH]c4ccccc34)[C@@](C(=O)OC)(c3cc4c(cc3OC)N(C=O)[C@H]3[C@@](O)(C(=O)OC)[C@H](OC(C)=O)[C@]5(CC)C=CCN6CC[C@]43[C@@H]65)C2)C1 [Vincristine]
relative JC-1 red fluorescence
Details	8 h	16 h	24 h	32 h	40 h	48 h	56 h	64 h	72 h
0.1 µM, coculture fibroblast: C12385	0.7719 ± 0.0069	0.724 ± 0.014	0.725 ± 0.022	0.66 ± 0.032	0.638 ± 0.027	0.63 ± 0.024	0.63 ± 0.034	0.63 ± 0.028	0.651 ± 0.025
0.1 µM, coculture fibroblast: H6013	0.7927 ± 0.0059	0.767 ± 0.0078	0.76 ± 0.026	0.768 ± 0.036	0.777 ± 0.042	0.826 ± 0.037	0.824 ± 0.049	0.846 ± 0.054	0.842 ± 0.05
0.1 µM, coculture fibroblast: H6019	0.828 ± 0.093	0.781 ± 0.11	0.774 ± 0.14	0.738 ± 0.16	0.723 ± 0.16	0.709 ± 0.14	0.706 ± 0.13	0.687 ± 0.096	0.674 ± 0.079
0.1 µM, coculture fibroblast: H6076	0.711 ± 0.029	0.686 ± 0.0079	0.7282 ± 0.0022	0.738 ± 0.016	0.78 ± 0.023	0.794 ± 0.027	0.868 ± 0.041	0.897 ± 0.04	0.928 ± 0.047
0.1 µM, coculture fibroblast: H6231	0.674 ± 0.0084	0.662 ± 0.02	0.714 ± 0.04	0.651 ± 0.049	0.676 ± 0.051	0.653 ± 0.052	0.669 ± 0.064	0.671 ± 0.064	0.675 ± 0.073
0.1 µM, coculture fibroblast: HADF	0.781 ± 0.009	0.761 ± 0.01	0.75 ± 0.01	0.732 ± 0.0039	0.743 ± 0.013	0.7804 ± 0.0026	0.73645 ± 0.00012	0.7461 ± 0.0065	0.732 ± 0.013
0.1 µM, coculture fibroblast: HCFa	0.8 ± 0.038	0.782 ± 0.053	0.783 ± 0.089	0.779 ± 0.09	0.774 ± 0.1	0.802 ± 0.12	0.76 ± 0.12	0.761 ± 0.12	0.715 ± 0.13
0.1 µM, coculture fibroblast: HCPF	0.769 ± 0.06	0.752 ± 0.059	0.767 ± 0.034	0.726 ± 0.035	0.741 ± 0.018	0.7202 ± 0.0049	0.718 ± 0.021	0.72 ± 0.028	0.727 ± 0.026
0.1 µM, coculture fibroblast: HHSteC	0.841 ± 0.037	0.867 ± 0.081	0.879 ± 0.1	0.878 ± 0.12	0.799 ± 0.0005	0.861 ± 0.058	0.7863 ± 0.0032	0.814 ± 0.058	0.86 ± 0.16
0.1 µM, coculture fibroblast: HMF	0.718 ± 0.052	0.703 ± 0.059	0.717 ± 0.046	0.689 ± 0.046	0.711 ± 0.037	0.707 ± 0.036	0.75 ± 0.019	0.754 ± 0.024	0.766 ± 0.026
0.1 µM, coculture fibroblast: HPFa	0.87 ± 0.034	0.875 ± 0.081	0.883 ± 0.1	0.883 ± 0.12	0.895 ± 0.13	0.826 ± 0.025	0.886 ± 0.14	0.887 ± 0.14	0.851 ± 0.15
0.1 µM, coculture fibroblast: HUF	0.8088 ± 0.0061	0.7552 ± 0.002	0.7438 ± 0.0029	0.6849 ± 0.0019	0.6479 ± 0.0064	0.64 ± 0.012	0.625 ± 0.016	0.627 ± 0.011	0.63 ± 0.01
0.1 µM, coculture fibroblast: Hs5	0.759 ± 0.034	0.762 ± 0.053	0.805 ± 0.074	0.791 ± 0.074	0.819 ± 0.071	0.806 ± 0.068	0.876 ± 0.065	0.871 ± 0.057	0.898 ± 0.052
0.1 µM, coculture fibroblast: Hs27A	0.7988 ± 0.003	0.779 ± 0.02	0.789 ± 0.042	0.797 ± 0.041	0.82 ± 0.042	0.91 ± 0.048	0.858 ± 0.046	0.88 ± 0.055	0.839 ± 0.049
0.1 µM, coculture fibroblast: Hs343T	0.707 ± 0.029	0.68 ± 0.013	0.67494 ± 5.7e-06	0.65881 ± 0.00035	0.674 ± 0.0056	0.66008 ± 0.00043	0.69 ± 0.0085	0.6967 ± 0.0056	0.705 ± 0.018
0.1 µM, coculture fibroblast: WS1	0.79194 ± 0.00043	0.7364 ± 0.0031	0.7254 ± 0.001	0.66202 ± 0.00058	0.6409 ± 0.0012	0.6208 ± 0.0013	0.6271 ± 0.0051	0.6219 ± 0.0037	0.6261 ± 0.002
1 µM, coculture fibroblast: C12385	0.7964 ± 0.0048	0.7104 ± 0.0041	0.6647 ± 0.0029	0.603 ± 0.002	0.558 ± 0.0062	0.542 ± 0.0057	0.523 ± 0.0086	0.501 ± 0.014	0.505 ± 0.018
1 µM, coculture fibroblast: H6013	0.857 ± 0.08	0.814 ± 0.14	0.778 ± 0.12	0.779 ± 0.13	0.764 ± 0.11	0.783 ± 0.099	0.77 ± 0.08	0.774 ± 0.06	0.751 ± 0.05
1 µM, coculture fibroblast: H6019	0.7743 ± 0.0062	0.69603 ± 0.00028	0.684 ± 0.013	0.6408 ± 0.0053	0.625 ± 0.0086	0.6365 ± 0.0046	0.632 ± 0.0073	0.634 ± 0.011	0.634 ± 0.012
1 µM, coculture fibroblast: H6076	0.794 ± 0.03	0.713 ± 0.017	0.703 ± 0.026	0.6788 ± 0.0031	0.676 ± 0.0099	0.663 ± 0.022	0.681 ± 0.04	0.697 ± 0.043	0.716 ± 0.046
1 µM, coculture fibroblast: H6231	0.816 ± 0.015	0.751 ± 0.022	0.696 ± 0.018	0.662 ± 0.009	0.627 ± 0.01	0.595 ± 0.016	0.577 ± 0.01	0.553 ± 0.0057	0.533 ± 0.0072
1 µM, coculture fibroblast: HADF	0.87 ± 0.029	0.827 ± 0.071	0.82 ± 0.041	0.81 ± 0.023	0.797 ± 0.024	0.81 ± 0.026	0.773 ± 0.033	0.773 ± 0.041	0.744 ± 0.051
1 µM, coculture fibroblast: HCFa	0.7895 ± 0.0042	0.718 ± 0.016	0.679 ± 0.016	0.64 ± 0.018	0.614 ± 0.021	0.62 ± 0.022	0.571 ± 0.021	0.558 ± 0.021	0.51 ± 0.018
1 µM, coculture fibroblast: HCPF	0.807 ± 0.014	0.735 ± 0.022	0.708 ± 0.041	0.67 ± 0.04	0.657 ± 0.049	0.631 ± 0.058	0.608 ± 0.061	0.598 ± 0.061	0.584 ± 0.069
1 µM, coculture fibroblast: HHSteC	0.8632 ± 0.0026	0.841 ± 0.029	0.782 ± 0.02	0.763 ± 0.03	0.753 ± 0.038	0.772 ± 0.04	0.72 ± 0.049	0.712 ± 0.045	0.664 ± 0.058
1 µM, coculture fibroblast: HMF	0.792 ± 0.023	0.693 ± 0.015	0.64009 ± 0.00053	0.612 ± 0.0088	0.591 ± 0.0044	0.562 ± 0.011	0.56 ± 0.017	0.546 ± 0.01	0.539 ± 0.017
1 µM, coculture fibroblast: HPFa	0.8663 ± 0.007	0.825 ± 0.014	0.77 ± 0.022	0.748 ± 0.025	0.736 ± 0.03	0.762 ± 0.044	0.7 ± 0.046	0.7 ± 0.046	0.647 ± 0.038
1 µM, coculture fibroblast: HUF	0.883 ± 0.034	0.79 ± 0.046	0.781 ± 0.043	0.72 ± 0.038	0.666 ± 0.043	0.637 ± 0.037	0.608 ± 0.035	0.596 ± 0.02	0.592 ± 0.022
1 µM, coculture fibroblast: Hs5	0.82 ± 0.027	0.754 ± 0.0078	0.7255 ± 0.0023	0.669 ± 0.011	0.661 ± 0.015	0.622 ± 0.018	0.643 ± 0.04	0.622 ± 0.038	0.624 ± 0.054
1 µM, coculture fibroblast: Hs27A	0.838 ± 0.016	0.801 ± 0.01	0.7753 ± 0.0023	0.7416 ± 0.0038	0.7299 ± 0.006	0.733 ± 0.03	0.701 ± 0.025	0.688 ± 0.029	0.641 ± 0.03
1 µM, coculture fibroblast: Hs343T	0.8 ± 0.029	0.713 ± 0.051	0.655 ± 0.058	0.632 ± 0.052	0.601 ± 0.058	0.569 ± 0.066	0.56 ± 0.064	0.538 ± 0.055	0.526 ± 0.051
1 µM, coculture fibroblast: WS1	0.804 ± 0.017	0.716 ± 0.026	0.6554 ± 0.0012	0.5861 ± 0.0013	0.5396 ± 0.0046	0.522 ± 0.0081	0.494 ± 0.011	0.469 ± 0.026	0.459 ± 0.035

± gives the standard deviation of the averaged measurements. Values are relative to the signal before dosing, not to a vehicle control; the signal also falls without drug.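 Fibroblast labels name human fibroblasts: mostly primary ones from tissues such as uterus (C12385, HUF), lung (H6013), bone (Hs27A), adrenal (HADF) and skin (WS1), plus mammary HMF and breast cancer-associated Hs343T. The cancer cells are basal-like or mesenchymal-like triple-negative breast cancer lines. The paper calls a changed response a hit when it shifts by more than 3x the replicate standard deviation. The tissue of the other fibroblasts is not given here.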
